Values quoted from earlier work as cited in patent US20110207804A1, “COMPOSITIONS FOR THE TREATMENT OF NEOPLASTIC DISEASES” (Slotervaart Participaties BV, priority 2008, published 2011).
Some of these results come from one statement about several compounds together.

Settings: oral administration; cited from earlier work

Compound | oral bioavailability
CC(=O)O[C@@]12CO[C@@H]1C[C@H](O)[C@@]1(C)C(=O)[C@H](O)C3=C(C)[C@@H](OC(=O)[C@H](O)[C@@H](NC(=O)OC(C)(C)C)c4ccccc4)C[C@@](O)([C@@H](OC(=O)c4ccccc4)[C@H]21)C3(C)C [docetaxel] | less than 10%
CC(=O)O[C@H]1C(=O)[C@@]2(C)[C@H]([C@H](OC(=O)c3ccccc3)[C@]3(O)C[C@H](OC(=O)[C@H](O)[C@@H](NC(=O)c4ccccc4)c4ccccc4)C(C)=C1C3(C)C)[C@]1(OC(C)=O)CO[C@@H]1C[C@@H]2O [paclitaxel] | less than 10%
